Earlier results as cited in US20210077469A1, “PHARMACEUTICAL COMBINATIONS OF EGFR INHIBITORS AND METHODS OF USE THEREOF” (DANA-FARBER CANCER INSTITUTE, INC., priority 2018, published 2021).
At least one structure is not confirmed: it was looked up by name or label, or the drawing left a doubt.

Tested on: NSCLC resistant to gefitinib or erotinib
Settings: patients with NSCLC resistant to gefitinib or erotinib; cited from earlier work

CN(C)C/C=C/C(=O)Nc1cc2c(Nc3ccc(F)c(Cl)c3)ncnc2cc1O[C@H]1CCOC1 [Afatinib]
RR: 10%
